Reference: publication PMC9925821
Results are given in words; binding and its absence hold for the method and conditions named. Binding seen in cells or lysates may run through a third protein. These calls come from enrichment with a bait or labelling near it, and not all partners need be listed. Sequences can lack the tags named with a protein.

Protein sequences, listed by entry. Tags and fused reporters are not part of them. Lines headed by an entry give the natural chain unless they say otherwise; changes in a name come on top.
UniProt P62491: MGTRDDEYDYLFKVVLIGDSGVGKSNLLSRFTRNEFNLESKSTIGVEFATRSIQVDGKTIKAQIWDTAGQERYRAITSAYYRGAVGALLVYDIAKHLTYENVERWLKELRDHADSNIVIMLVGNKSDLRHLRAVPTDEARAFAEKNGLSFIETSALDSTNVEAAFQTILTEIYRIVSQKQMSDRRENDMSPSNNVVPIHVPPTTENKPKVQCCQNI
UniProt Q96KN1: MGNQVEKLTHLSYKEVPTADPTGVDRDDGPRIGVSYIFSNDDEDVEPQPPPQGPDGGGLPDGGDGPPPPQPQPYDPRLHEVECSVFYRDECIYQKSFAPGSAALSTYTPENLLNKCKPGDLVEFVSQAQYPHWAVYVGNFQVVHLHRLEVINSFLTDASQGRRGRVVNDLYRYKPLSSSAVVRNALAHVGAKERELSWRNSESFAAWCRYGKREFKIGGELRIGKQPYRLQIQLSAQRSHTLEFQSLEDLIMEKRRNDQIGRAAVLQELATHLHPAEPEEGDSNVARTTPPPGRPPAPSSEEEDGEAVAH
UniProt Q8TCG2: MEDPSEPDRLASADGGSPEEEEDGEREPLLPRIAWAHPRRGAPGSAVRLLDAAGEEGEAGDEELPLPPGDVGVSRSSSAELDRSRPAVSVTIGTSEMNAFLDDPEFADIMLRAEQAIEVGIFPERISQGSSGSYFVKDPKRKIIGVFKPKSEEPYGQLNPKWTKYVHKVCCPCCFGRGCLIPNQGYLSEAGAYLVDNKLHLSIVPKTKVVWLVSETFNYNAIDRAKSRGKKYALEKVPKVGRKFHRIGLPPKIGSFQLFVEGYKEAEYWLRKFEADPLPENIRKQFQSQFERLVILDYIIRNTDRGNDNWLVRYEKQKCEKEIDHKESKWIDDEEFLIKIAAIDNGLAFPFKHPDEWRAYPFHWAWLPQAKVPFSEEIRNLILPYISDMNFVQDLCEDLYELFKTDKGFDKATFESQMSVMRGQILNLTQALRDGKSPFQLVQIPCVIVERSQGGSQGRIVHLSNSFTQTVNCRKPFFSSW

Biological target: T1, Flag-FKBP51 (True-ORF-Myc-DDK (Flag)-tagged human FKBP51-transcript variant 1) (human) (UniProt Q13451)
T1 sequence: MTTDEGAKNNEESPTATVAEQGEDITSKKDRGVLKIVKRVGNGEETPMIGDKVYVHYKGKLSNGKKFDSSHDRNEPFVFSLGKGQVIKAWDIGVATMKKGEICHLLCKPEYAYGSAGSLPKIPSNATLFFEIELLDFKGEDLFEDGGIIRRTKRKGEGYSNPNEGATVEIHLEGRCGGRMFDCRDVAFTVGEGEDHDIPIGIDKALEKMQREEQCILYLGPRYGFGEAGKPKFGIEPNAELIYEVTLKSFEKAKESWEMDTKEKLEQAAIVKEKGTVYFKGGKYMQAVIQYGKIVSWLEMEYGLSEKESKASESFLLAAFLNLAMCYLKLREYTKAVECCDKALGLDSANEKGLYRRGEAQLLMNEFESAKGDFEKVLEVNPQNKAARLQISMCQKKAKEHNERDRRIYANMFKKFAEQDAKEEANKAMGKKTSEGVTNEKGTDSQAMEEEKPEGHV
Experiment: affinity purification with mass spectrometry; Flag-FKBP51 immunopurified from transfected A375 cells (with or without PHLPP over-representation) on anti-DYKDDDDK magnetic agarose, SDS-PAGE, in-gel trypsin digestion, nanoLC-ESI-Q-Orbitrap-MS/MS; empty vector as control

Row | Substance | binding
1 | Rab11a (from UniProt P62491 1-216) | binds
2 | NSE2 (from UniProt Q96KN1) | binds
3 | PI4K2B (from UniProt Q8TCG2 1-481) | binds
